Measured values published in PubChem BioAssay AID720504 (National Center for Advancing Translational Sciences (NCATS), 2013).
In all, about 360,000 compounds went through this assay and about 10,000 (2.8%) were called active. The inconclusive results got no clear call from the source; some entries with a clear call stand among them for comparison. Calls follow the shape of the dose curve; as a rule, active = well fitted inhibition curve with a large enough effect; inconclusive = small, poorly fitted or top-dose-only effect; inactive = flat fitted curve, though single readings scatter. A potency beside an inconclusive call is a rough fit, not a confirmed value.

Sequences of proteins named here, by UniProt entry; tags and fusion partners are left off.
UniProt P53350, whole entry, looked up: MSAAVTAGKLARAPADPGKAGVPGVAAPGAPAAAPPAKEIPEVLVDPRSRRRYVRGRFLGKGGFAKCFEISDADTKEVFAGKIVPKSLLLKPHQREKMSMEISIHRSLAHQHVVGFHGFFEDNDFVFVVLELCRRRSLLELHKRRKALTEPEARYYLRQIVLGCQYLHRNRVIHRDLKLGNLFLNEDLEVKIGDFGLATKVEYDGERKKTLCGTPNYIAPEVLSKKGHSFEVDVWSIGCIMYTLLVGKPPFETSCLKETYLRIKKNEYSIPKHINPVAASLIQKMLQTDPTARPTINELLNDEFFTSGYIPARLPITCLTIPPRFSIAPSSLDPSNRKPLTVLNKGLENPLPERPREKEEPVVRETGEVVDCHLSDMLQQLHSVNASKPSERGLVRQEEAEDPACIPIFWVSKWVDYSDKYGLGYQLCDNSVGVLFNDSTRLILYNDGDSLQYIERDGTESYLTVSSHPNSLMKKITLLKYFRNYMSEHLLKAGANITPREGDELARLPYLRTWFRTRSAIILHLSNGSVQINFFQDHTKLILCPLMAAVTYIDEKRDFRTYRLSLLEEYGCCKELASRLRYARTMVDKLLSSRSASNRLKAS

molecular target: Serine/threonine-protein kinase PLK1 (Homo sapiens) (UniProt P53350); assay: qHTS for Inhibitors of PLK1-PDB (polo-like kinase 1 - polo-box domain): Primary Screen; settings: Plk1 PBD binding of FITC phosphopeptide, fluorescence polarization; also: nearly all actives have a fitted effect of over 65% in size; as to max response, negative = inhibition: series mostly up to about 57 µM
% is scaled to controls: 0 for no effect and ±100 for the full control effect; potency is read from the fitted curve at half-maximal effect.

SMILES	max response, negative = inhibition	Potency
COC(=O)[C@]1(Cc2ccccc2)N[C@H](CN(C)S(=O)(=O)c2ccc(-c3ccccc3)cc2)[C@@H]2C(=O)N(C)C(=O)[C@@H]21	inactive: -15.6%	
O=C(CSc1ncccn1)c1ccccc1Br		inconclusive: 21.2 µM [inhibitor, partial curve]
C[C@@H]1CN([C@H](C)CO)C(=O)c2cc(C#CC3CC3)cnc2O[C@H]1CN(C)S(C)(=O)=O		inconclusive: 37.7 µM [inhibitor, single point]
COc1ccc(Cc2nnc(N=Nc3c(O)[nH]c4ccc(Br)cc34)[nH]c2=O)cc1		inconclusive: 29.9 µM [inhibitor, partial curve]
Cc1ccc(SC(CC(=O)c2ccc(F)cc2)C(=O)O)cc1 (stereo not given)		inconclusive: 26.7 µM [inhibitor, partial curve]
CCCCN(C)C(=O)c1nc2ccccn2c1CN1CCN(c2ccccn2)CC1		inconclusive: 18.9 µM [inhibitor, partial curve]
O=S(=O)(N=C1C=CC(=NS(=O)(=O)c2ccccc2)c2ccccc21)c1ccccc1		inconclusive: 26.7 µM [inhibitor, single point]
S=C(NCc1ccccc1)NNc1nc2ccccc2[nH]1		active: 16.8 µM
Cc1ccc(S(=O)(=O)Nc2nc3ccccc3nc2N2CCN(c3ccccc3F)CC2)cc1		inconclusive: 37.7 µM [inhibitor, single point]
C/C(=N/NS(=O)(=O)c1ccc(CC(C)C)cc1)c1ccncc1		inconclusive: 21.2 µM [inhibitor, partial curve]
Cc1ccccc1Nc1nc(N)nc(CSc2nnnn2C)n1	inactive: -14.5%	
CC(C)c1ccc(NC(=S)Nc2ccc3[nH]c(=O)[nH]c3c2)cc1	inactive: -17.1%	
CCOC(=O)c1[nH]c(C)c(C(=O)N(CC)CC)c1C	inactive: -17.7%	
Cc1coc(=N)n1CC(=O)c1ccc(Cl)cc1		inconclusive: 29.9 µM [inhibitor, partial curve]
O=C(O)c1ccc2c(c1)N(Cc1ccccc1)C(=O)c1ccccc1S2		inconclusive: 29.9 µM [inhibitor, single point]
CC(C)CNC(=O)[C@@H]1CSC2c3ccccc3C(=O)N21 (stereo not given in full)		inconclusive: 13.4 µM [inhibitor, partial curve]
CCOC(=O)COc1ccc(C(c2c(C)[nH][nH]c2=O)c2c(C)[nH][nH]c2=O)cc1		inconclusive: 29.9 µM [inhibitor, partial curve]
Cc1ccc(S(=O)(=O)N(C)c2nc3ccccc3[nH]c2=S)cc1		active: 10.6 µM
COc1ccc(C2C(C#N)=C(N)Oc3cc4c(cc32)OCO4)cc1 (stereo not given)	inactive: -11%	
O=c1cc(CSc2nnnn2-c2ccccc2)nc2nc[nH]n12	inactive: -9.66%	
COc1cc(/C=C2/C(=N)N3C(c4ccccc4)=CSC3=NC2=O)ccc1OCC(=O)O		inconclusive: 29.9 µM [inhibitor, single point]
Cc1ccc(C2=NNC(C(O)C(O)C(O)C(O)CO)S2)cc1 (stereo not given)		inconclusive: 26.7 µM [inhibitor, partial curve]
Cc1cccc2cc(C(c3nnnn3C(C)(C)C)N(Cc3ccco3)CC3CCCO3)c(=O)[nH]c12 (stereo not given)	inactive: -6.12%	

SMILES	max response, negative = inhibition	Potency
COC(=O)C[C@H]1C[C@H]2c3cc(NC(=O)C4CCOCC4)ccc3O[C@H]2[C@@H](CO)O1	inactive: -2.18%	
CSc1nnc(C)c(/C=C/Nc2ccc(F)cc2F)n1	inactive: -6.09%	
COc1ccccc1N(CCC#N)C(=S)Nc1ccc(S(=O)(=O)N2CCOCC2)cc1		inconclusive: 37.7 µM [inhibitor, single point]
O=C1CSC(=Nc2ccc(O)cc2)N1c1ccc(O)cc1		inconclusive: 21.2 µM [inhibitor, partial curve]
COc1ccc(/C=C/C(=O)c2ccccc2)c(OC)c1	inactive: -10%	
O=C(Nc1ccc2ncccc2c1)c1ccccc1Br		inconclusive: 21.2 µM [inhibitor, partial curve]
O=C(Nc1nnc(SCC(=O)N2CCOCC2)s1)c1ccccc1		inconclusive: 21.2 µM [inhibitor, partial curve]
CCOc1ccc(N2CC(C(=O)NCc3cccc(C)c3)CC2=O)cc1 (stereo not given)		active: 5.97 µM
CN(C)c1cc[n+](CC(=O)Nc2cc(C(F)(F)F)ccc2Cl)cc1	inactive: -2.82%	
Cc1c(NC(=O)C2CCCNC2=O)c(=O)n(-c2ccccc2)n1C (stereo not given)	inconclusive: -34.3% [inhibitor]	
CC1CCC2=NN(C(=O)c3ccco3)C(O)(C(F)(F)F)C2C1 (stereo not given)		inconclusive: 23.8 µM [inhibitor, partial curve]
COc1ccc(Cl)cc1C(=O)CSc1nc(N)cc(N)n1		inconclusive: 29.9 µM [inhibitor, single point]
COc1ccc(S(=O)(=O)Nc2nnc(Cc3ccc(OC)c(OC)c3)s2)cc1		active: 26.7 µM
O/C(=C\c1nc2ccccc2nc1/C=C(\O)c1ccccc1)c1ccccc1		inconclusive: 8.44 µM [inhibitor, partial curve]
Nc1ncc(N=Nc2cc(C(=O)O)ccc2Cl)s1		inconclusive: 26.7 µM [inhibitor, single point]
Cc1nn(C)c(C(=O)NNC(=S)NCc2ccco2)c1Cl		inconclusive: 29.9 µM [inhibitor, single point]
Fc1ccc(-c2csc(=S)[nH]2)cc1		active: 23.8 µM
CN(C)c1ccc(NC(=O)Nc2ccc3c(c2)c(=O)n(C)n3-c2ccccc2)cc1	inactive: -7.7%	
O=C(Nc1cccc(OC(F)(F)F)c1)C1Cc2c(-c3ccccc3Oc3ccccc3)ccnc2O1 (stereo not given)	inactive: -0.535%	
Nc1ccc(N2CCCCC2)cc1N1CCCCC1	inactive: -7.67%	
C[C@H](NC(=O)c1ccccc1)C(=O)N1CCC2(CC1)NCCc1[nH]cnc12		inconclusive: 21.2 µM [inhibitor, partial curve]
COc1cccc(/C=C/C(=O)NNC(=O)c2ccco2)c1OC	inactive: -8.7%	

Filtered by structure: the compounds so far with a carbonyl joined to an NH by a bond outside any ring.
SMILES	max response, negative = inhibition	Potency
CC(C)CNC(=O)[C@@H]1CSC2c3ccccc3C(=O)N21 (stereo not given in full)		inconclusive: 13.4 µM [inhibitor, partial curve]
COC(=O)C[C@H]1C[C@H]2c3cc(NC(=O)C4CCOCC4)ccc3O[C@H]2[C@@H](CO)O1	inactive: -2.18%	
O=C(Nc1ccc2ncccc2c1)c1ccccc1Br		inconclusive: 21.2 µM [inhibitor, partial curve]
O=C(Nc1nnc(SCC(=O)N2CCOCC2)s1)c1ccccc1		inconclusive: 21.2 µM [inhibitor, partial curve]
CCOc1ccc(N2CC(C(=O)NCc3cccc(C)c3)CC2=O)cc1 (stereo not given)		active: 5.97 µM
CN(C)c1cc[n+](CC(=O)Nc2cc(C(F)(F)F)ccc2Cl)cc1	inactive: -2.82%	
Cc1c(NC(=O)C2CCCNC2=O)c(=O)n(-c2ccccc2)n1C (stereo not given)	inconclusive: -34.3% [inhibitor]	
Cc1nn(C)c(C(=O)NNC(=S)NCc2ccco2)c1Cl		inconclusive: 29.9 µM [inhibitor, single point]
CN(C)c1ccc(NC(=O)Nc2ccc3c(c2)c(=O)n(C)n3-c2ccccc2)cc1	inactive: -7.7%	
O=C(Nc1cccc(OC(F)(F)F)c1)C1Cc2c(-c3ccccc3Oc3ccccc3)ccnc2O1 (stereo not given)	inactive: -0.535%	
C[C@H](NC(=O)c1ccccc1)C(=O)N1CCC2(CC1)NCCc1[nH]cnc12		inconclusive: 21.2 µM [inhibitor, partial curve]
COc1cccc(/C=C/C(=O)NNC(=O)c2ccco2)c1OC	inactive: -8.7%	
